In article PMC7216583 (Parasites & Vectors, 2020):

Experiments:
human CYP isoforms = settings: ref S-inhibitor; cited from earlier work
[1] = tested on: Toxoplasma gondii RH-2F tachyzoites; assay: microbe, parasite or virus in culture; settings: 72 h, read-out: Parasite inhibition (%) mean

Question: With `C[C@@H]1C(SC2CN(C3=NCCS3)C2)=C(C(=O)OCOC(=O)C(C)(C)C)N2C(=O)[C@H]([C@@H](C)O)[C@H]12` [Tebipenem pivoxil (L-084)] as the compound, how does the “IC50, human CYP isoforms” value (human CYP isoforms) read?
Answer: Tebipenem pivoxil(L-084) is a novel oral carbapenem antibiotic with an IC50 of 100 μg/ml for human CYP isoforms

Question: And the inhibition of growth at 5 µM [1]?
Answer: 15.4%

Question: Which inhibition of growth at 5 µM [1] does the source give for `Nc1nc(N)c2nc(-c3cccc(O)c3)cnc2n1` [TG 100713] here?
Answer: 0.8%

Question: For `O=C(c1ccc(F)cc1)N1CCC[C@H](c2nc(-c3ccc(F)cc3)no2)C1` [ADX-47273], which inhibition of growth at 5 µM [1] is on record?
Answer: 5%
